Measurements reported in PubChem BioAssay AID1224827 (NIAID, 2016)

Assay: 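Confirm genes whose knock-down changes LPS-driven TNF promoter activity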 (follow-up of hits)
System: RAW264.7 G9 mouse macrophage reporter clone
Knock-down reagent: single siRNA against mouse genes, 100 nM siRNA
Timing: siRNA for 2 days, then LPS about 16 h
Conditions: bacterial lipopolysaccharide (LPS), 10 ng/ml, cells fixed after overnight (about 16 h) stimulation
Read-out: 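TNF promoter reporter red fluorescence in nuclei, background subtracted, normalised per plate and to non-targeting control siRNA, as z-scores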
Reading the numbers: TNF reporter z-score, mean and TNF reporter z-score: higher = stronger Tnf promoter reporter signal; gene median z, three same-vendor siRNAs: higher = stronger Tnf reporter signal for the gene
Rule for the call: 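Active siRNA: replicate-mean z-score of 2 or more, or -2 or less; no calls for control wells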
Shown is an unselected part of about 3,800 reagents. In the full data, about 2,200 (57%) are marked active. 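Active means a strong reporter change in either direction; calls are per siRNA, not per gene; qiagen siRNAs gave weaker effects.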 Entries without a mark were called inactive. The numbers tell different reagents against one gene apart. Further read-outs or replicates are left out here.

no.	Gene	reagent	TNF reporter z-score, mean	gene median z, three same-vendor siRNAs	TNF reporter z-score, repeat 1
1	Usp43	1	4.26 (active)	1.49	3.56
2	Usp43	2	1.49	1.49	0.333
3	Usp43	3	-2.24 (active)	1.49	-2.47
4	Lrrn4	1	-1.15	-3.79	-1.82
5	Lrrn4	2	-3.85 (active)	-3.79	-4.73
6	Lrrn4	3	-4.68 (active)	-3.79	-4.61
7	Lrrn4	4	2.12 (active)	-0.434	4.48
8	Lrrn4	5	0.693	-0.434	2.08
9	Lrrn4	6	-0.96	-0.434	-0.626
10	Trip12	1	-2.51 (active)	-3.65	-2.85
11	Trip12	2	-3.79 (active)	-3.65	-4.5
12	Trip12	3	-4.27 (active)	-3.65	-4.34
13	Trip12	4	6.03 (active)	2.93	8.72
14	Trip12	5	2.33 (active)	2.93	3.89
15	Trip12	6	0.976	2.93	2.51
16	Spryd7	1	1.34	-4.46	0.7
17	Spryd7	2	-4.46 (active)	-4.46	-4.12
18	Spryd7	3	-5.07 (active)	-4.46	-5.07
19	Spryd7	4	1.81	1.57	4.13
20	Spryd7	5	1.57	1.57	3.3
21	Spryd7	6	1.43	1.57	3.31
22	Cd300c	1	4.7 (active)	-1.47	1.97
23	Cd300c	2	-2.2 (active)	-1.47	-2.31
24	Cd300c	3	-2.13 (active)	-1.47	-3.4
25	Cd300c	4	3.58 (active)	0.244	6.4
26	Cd300c	5	3.02 (active)	0.244	6.31
27	Cd300c	6	-3.96 (active)	0.244	-4.65

Already shown: entries from further up.
no.	Gene	reagent	TNF reporter z-score, mean	gene median z, three same-vendor siRNAs	TNF reporter z-score, repeat 1
6	Lrrn4	3	-4.68 (active)	-3.79	-4.61
7	Lrrn4	4	2.12 (active)	-0.434	4.48
